According to publication PMC12046049:
No constants are given. Whether binding was seen depends on the method and setting. For part of these data: In cells and extracts the contact can be indirect. Some results given as binding are weak or reduced against the parent protein; the word gives no strength. Values belong to the substance of their own block, whether it stands above or below them.

Protein sequences, listed by entry. Tags and fused reporters are not part of them.
UniProt Q8VHX6: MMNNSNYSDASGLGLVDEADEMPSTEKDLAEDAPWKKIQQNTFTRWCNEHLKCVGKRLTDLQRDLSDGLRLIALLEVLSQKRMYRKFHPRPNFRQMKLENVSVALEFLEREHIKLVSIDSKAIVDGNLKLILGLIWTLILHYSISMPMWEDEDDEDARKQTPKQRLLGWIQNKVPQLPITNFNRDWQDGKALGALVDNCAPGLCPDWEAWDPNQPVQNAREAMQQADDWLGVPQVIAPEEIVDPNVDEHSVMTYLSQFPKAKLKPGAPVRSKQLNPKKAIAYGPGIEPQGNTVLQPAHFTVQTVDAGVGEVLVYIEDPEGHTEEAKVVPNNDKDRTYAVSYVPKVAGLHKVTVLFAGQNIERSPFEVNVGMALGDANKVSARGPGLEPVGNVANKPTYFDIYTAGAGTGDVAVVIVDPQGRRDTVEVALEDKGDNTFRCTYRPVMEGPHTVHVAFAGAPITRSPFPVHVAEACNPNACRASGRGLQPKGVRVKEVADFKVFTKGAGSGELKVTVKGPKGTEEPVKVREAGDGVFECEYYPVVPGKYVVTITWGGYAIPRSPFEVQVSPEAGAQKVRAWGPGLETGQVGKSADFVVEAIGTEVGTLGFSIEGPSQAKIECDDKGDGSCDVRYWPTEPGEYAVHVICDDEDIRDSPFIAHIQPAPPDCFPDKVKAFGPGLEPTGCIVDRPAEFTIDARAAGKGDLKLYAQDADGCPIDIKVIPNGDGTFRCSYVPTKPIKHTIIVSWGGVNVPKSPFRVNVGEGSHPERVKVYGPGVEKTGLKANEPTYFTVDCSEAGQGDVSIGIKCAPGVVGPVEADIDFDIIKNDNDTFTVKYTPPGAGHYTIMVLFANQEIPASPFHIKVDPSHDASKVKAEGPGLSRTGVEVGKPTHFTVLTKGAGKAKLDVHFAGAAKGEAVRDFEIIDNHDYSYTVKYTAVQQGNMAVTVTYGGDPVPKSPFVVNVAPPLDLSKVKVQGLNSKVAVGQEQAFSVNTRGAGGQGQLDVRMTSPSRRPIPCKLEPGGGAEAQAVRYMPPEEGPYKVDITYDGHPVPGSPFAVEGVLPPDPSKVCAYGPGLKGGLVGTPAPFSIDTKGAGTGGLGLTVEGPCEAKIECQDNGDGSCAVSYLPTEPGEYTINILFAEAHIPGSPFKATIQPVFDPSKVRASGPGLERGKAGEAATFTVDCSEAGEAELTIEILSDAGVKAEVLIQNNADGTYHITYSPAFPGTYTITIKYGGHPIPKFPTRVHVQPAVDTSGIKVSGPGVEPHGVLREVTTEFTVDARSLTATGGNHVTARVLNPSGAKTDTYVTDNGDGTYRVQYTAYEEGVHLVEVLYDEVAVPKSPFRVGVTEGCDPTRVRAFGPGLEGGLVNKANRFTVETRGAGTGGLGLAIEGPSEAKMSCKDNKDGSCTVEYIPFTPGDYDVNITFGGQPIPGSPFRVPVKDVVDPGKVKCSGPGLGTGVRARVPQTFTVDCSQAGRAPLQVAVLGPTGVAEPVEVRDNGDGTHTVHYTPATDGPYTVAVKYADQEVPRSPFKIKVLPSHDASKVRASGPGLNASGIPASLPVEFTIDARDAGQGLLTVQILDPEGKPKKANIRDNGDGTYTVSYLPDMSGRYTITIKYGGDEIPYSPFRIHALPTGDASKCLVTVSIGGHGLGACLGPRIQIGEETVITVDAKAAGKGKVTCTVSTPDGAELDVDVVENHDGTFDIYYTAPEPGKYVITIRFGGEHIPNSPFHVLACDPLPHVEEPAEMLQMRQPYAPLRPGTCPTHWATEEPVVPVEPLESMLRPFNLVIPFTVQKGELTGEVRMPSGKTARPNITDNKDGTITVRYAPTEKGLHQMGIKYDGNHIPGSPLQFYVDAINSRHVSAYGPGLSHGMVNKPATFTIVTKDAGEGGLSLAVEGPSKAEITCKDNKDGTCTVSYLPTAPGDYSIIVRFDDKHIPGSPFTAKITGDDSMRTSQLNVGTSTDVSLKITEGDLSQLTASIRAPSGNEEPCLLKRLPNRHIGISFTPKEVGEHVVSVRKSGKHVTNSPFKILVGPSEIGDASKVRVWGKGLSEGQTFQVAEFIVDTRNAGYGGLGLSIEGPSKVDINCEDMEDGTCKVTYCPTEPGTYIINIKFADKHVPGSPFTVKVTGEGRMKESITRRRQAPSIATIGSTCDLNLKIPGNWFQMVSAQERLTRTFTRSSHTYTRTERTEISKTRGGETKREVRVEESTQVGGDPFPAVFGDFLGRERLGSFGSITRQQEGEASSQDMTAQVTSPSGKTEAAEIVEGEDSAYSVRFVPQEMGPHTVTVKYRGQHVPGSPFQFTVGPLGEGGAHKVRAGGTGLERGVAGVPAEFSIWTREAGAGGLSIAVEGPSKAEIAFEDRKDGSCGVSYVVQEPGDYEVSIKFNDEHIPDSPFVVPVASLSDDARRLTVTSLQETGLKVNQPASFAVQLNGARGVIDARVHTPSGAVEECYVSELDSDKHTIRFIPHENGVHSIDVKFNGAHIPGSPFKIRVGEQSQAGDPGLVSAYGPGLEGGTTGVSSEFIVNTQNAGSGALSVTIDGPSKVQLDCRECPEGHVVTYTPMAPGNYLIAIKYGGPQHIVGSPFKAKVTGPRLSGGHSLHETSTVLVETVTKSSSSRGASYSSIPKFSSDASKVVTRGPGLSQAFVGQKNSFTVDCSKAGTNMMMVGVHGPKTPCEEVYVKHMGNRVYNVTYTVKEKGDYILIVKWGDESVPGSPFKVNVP
UniProt P35385: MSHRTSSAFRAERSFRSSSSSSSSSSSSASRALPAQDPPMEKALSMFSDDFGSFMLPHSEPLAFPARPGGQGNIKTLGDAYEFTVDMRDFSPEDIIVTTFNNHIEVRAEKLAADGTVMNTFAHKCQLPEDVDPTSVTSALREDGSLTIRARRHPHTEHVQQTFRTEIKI

Legend:
[1] = biological target: filamin C (FLNC), endogenous in mouse ventricular tissue (mouse (endogenous in ventricular tissue)) (UniProt Q8VHX6); assay: co-IP; anti-FLNC antibody 1899 and Protein G beads on mouse heart lysates (wild-type and MLP KO), 900 μg total protein, IP buffer with 1% Triton X-100, 0.5% NP-40; blot for HSPB7; isotype control antibody
[2] = biological target: HSPB7ACD (α-crystallin domain, residues 78-162 of isoform 2) (human) (UniProt Q9UBY9); assay: native MS; each HSPB7 construct alone at ~10 μM; 200 mM ammonium acetate pH 6.9 (full-length HSPB7: 1 M ammonium acetate pH 6.9); both purified
[3] = biological target: HSPB7ΔN (residues 78-175 of isoform 2) (human) (UniProt Q9UBY9); assay: as above

binding [1]: binds
Substance: HSPB7, endogenous in mouse ventricular tissue (from UniProt P35385 1-169)

binding [2]: no binding (tested: ~10 μM)
Substance: HSPB7ACD (α-crystallin domain, residues 78-162 of isoform 2) (from UniProt Q9UBY9-2 78-162) (domain or fragment)

binding [3]: no binding (tested: ~10 μM)
Substance: HSPB7ΔN (residues 78-175 of isoform 2) (from UniProt Q9UBY9-2 78-175) (domain or fragment)
